Measured values as given in article PMC7819943, “Rice protein-binding microarrays: a tool to detect cis-acting elements near promoter regions in rice”.
Some of the results follow.

molecular target: T1, OsSMF1 (Oryza sativa, UniProt Q6ZLB0 1-436); assay: protein-binding microarray (RPBM); PBS, 2% BSA, 51.3 ng/ul salmon testes DNA, 50 uM zinc acetate, 200 nM TF, 25 C, 1 h; high values mean tight binding; details: protein: recombinant; tags: N-terminal polyhistidine and DsRed monomer fusion (pET32a); chain copies: 2; label: CyDye5-dUTP incorporated in the synthesized complementary strand; 3' TTTTT single-stranded linker to array surface; dsDNA, one strand shown
T1 sequence: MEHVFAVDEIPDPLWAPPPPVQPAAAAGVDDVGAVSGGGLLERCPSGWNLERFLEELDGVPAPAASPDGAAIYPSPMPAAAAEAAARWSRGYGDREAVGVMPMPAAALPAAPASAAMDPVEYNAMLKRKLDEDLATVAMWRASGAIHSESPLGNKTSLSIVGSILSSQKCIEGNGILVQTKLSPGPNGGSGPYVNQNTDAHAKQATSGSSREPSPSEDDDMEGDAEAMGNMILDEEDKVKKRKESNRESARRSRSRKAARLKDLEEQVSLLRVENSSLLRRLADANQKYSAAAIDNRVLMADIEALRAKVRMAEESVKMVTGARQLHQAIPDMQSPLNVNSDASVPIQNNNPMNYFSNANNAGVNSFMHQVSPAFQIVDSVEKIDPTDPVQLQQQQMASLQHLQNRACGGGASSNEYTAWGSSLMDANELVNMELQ
Method in brief: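 Per-feature fluorescence intensity (arbitrary units), read on an Axon 4000B scanner, is the binding signal. Transcription factors carrying an N-terminal polyhistidine tag and DsRed fusion were expressed in E. coli BL21-CodonPlus and purified on Ni–NTA. A custom Agilent array, made double-stranded by primer extension with Cy5-dUTP and blocked with 2% BSA, was incubated with 200 nM protein in PBS, 2% BSA, salmon testes DNA and 50 µM zinc acetate at 25 °C for 1 h and then washed.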

| Sequence | binding signal |
| --- | --- |
| CATGCTATGTGCTCAAAGGGCAACGGTCGACGTGTGCCTTCGGAGTCACCTAGTGCAG | 4110 fluorescence intensity (a.u.) |
| TCCCCTTCCCCTTGCGTAAGGAAAACGAAAATCTTAAAATCGGAGTCACCTAGTGCAG | 6370 fluorescence intensity (a.u.) |
| CCGTCTCCACGCATCATCGTCTCCCGCTCCTTTTAAACCCCGGAGTCACCTAGTGCAG | 3380 fluorescence intensity (a.u.) |
| TTGATTCTGTTAGAGTCACGCACATGACCTCGCTGGTTTTCGGAGTCACCTAGTGCAG | 3180 fluorescence intensity (a.u.) |
| GTTAGTTGGCTGACTCCACACGCCTCGCCGTCTCAGTGTCCGGAGTCACCTAGTGCAG | 4940 fluorescence intensity (a.u.) |
| TATACTATACCTCTACATATAACGCCACCCGTCGCCTCGCCGGAGTCACCTAGTGCAG | 3220 fluorescence intensity (a.u.) |
| CGAGCACGCGGCGACGCCCACGCCCACGCACACAGCTCGGCGGAGTCACCTAGTGCAG | 4270 fluorescence intensity (a.u.) |
| TAAACCGCACCCGCGGACGTGACACAGCCACGCTGACTATCGGAGTCACCTAGTGCAG | 4620 fluorescence intensity (a.u.) |
| TTTCTTTTACTAATTGTTTGCTAATTAATGAATGTATGGCCGGAGTCACCTAGTGCAG | 31900 fluorescence intensity (a.u.) |
| AATCCCACGCGGTGCACAGTGAGTGCCACAGCACAGAGTGCGGAGTCACCTAGTGCAG | 3340 fluorescence intensity (a.u.) |
| CCGCCTCCGCCGACGTGCGCTGCGGCCCACCTTTGCTTCTCGGAGTCACCTAGTGCAG | 3740 fluorescence intensity (a.u.) |
| TGGAAAATTTGCATTTAGGTCCCAAAGGGCGGCAGGCGATCGGAGTCACCTAGTGCAG | 12500 fluorescence intensity (a.u.) |
| CAGAGTGTGGTCCTTGTGGAACAAGCTTACAAGGGTGACACGGAGTCACCTAGTGCAG | 3510 fluorescence intensity (a.u.) |
| TTATGGACTGATATGGGCCGTTGGATTGGTTTCGGTTTTGCGGAGTCACCTAGTGCAG | 5480 fluorescence intensity (a.u.) |
| AGATTTTGGGTGTGTTTGGTTGCTTGCATTGTTTTAGTCTCGGAGTCACCTAGTGCAG | 3300 fluorescence intensity (a.u.) |
| GAGTTGAAGCCAACAATTCTGACAAACCTAACAAAGATCACGGAGTCACCTAGTGCAG | 30400 fluorescence intensity (a.u.) |
| CCGCCGCCCGCGCCACCCACGTCGCCGTCCCGCACGACGCCGGAGTCACCTAGTGCAG | 5010 fluorescence intensity (a.u.) |
| CCGATCGCGCTCGCCTCGCCTACGTGGCCACTCGCCCCGCCGGAGTCACCTAGTGCAG | 14400 fluorescence intensity (a.u.) |
| CGCGTACCGACAGGTCACATCGGGGCCATCCTGACCGTCCCGGAGTCACCTAGTGCAG | 4580 fluorescence intensity (a.u.) |
| GCAATCCAATTGCATGATCCGGTGCACAATTTACTGACGACGGAGTCACCTAGTGCAG | 3160 fluorescence intensity (a.u.) |
| ACCCGCGTGCGGCGCGGCGCGTCACCATCCACCGTTTATTCGGAGTCACCTAGTGCAG | 4180 fluorescence intensity (a.u.) |
| GTCGTAGAGCGGCAGCGCGTGGCCCTGCGCCGGGAAGGGGCGGAGTCACCTAGTGCAG | 23800 fluorescence intensity (a.u.) |
| TGGCTCCCACGTTAACTTAGCCGCCACGTCAGCTAAAACCCGGAGTCACCTAGTGCAG | 46600 fluorescence intensity (a.u.) |

Reformatted as tab-separated lines: entries from further up.
Sequence	binding signal
TTGATTCTGTTAGAGTCACGCACATGACCTCGCTGGTTTTCGGAGTCACCTAGTGCAG	3180 fluorescence intensity (a.u.)
GTTAGTTGGCTGACTCCACACGCCTCGCCGTCTCAGTGTCCGGAGTCACCTAGTGCAG	4940 fluorescence intensity (a.u.)
TATACTATACCTCTACATATAACGCCACCCGTCGCCTCGCCGGAGTCACCTAGTGCAG	3220 fluorescence intensity (a.u.)
CGAGCACGCGGCGACGCCCACGCCCACGCACACAGCTCGGCGGAGTCACCTAGTGCAG	4270 fluorescence intensity (a.u.)
TAAACCGCACCCGCGGACGTGACACAGCCACGCTGACTATCGGAGTCACCTAGTGCAG	4620 fluorescence intensity (a.u.)
